Earlier results in article PMC7175181 (Biomolecules, 2020).

System: ACE
Conditions: ref [52],[53]; cited from earlier work

SMILES: NCCCC[C@H](N[C@@H](CCc1ccccc1)C(=O)O)C(=O)N1CCC[C@H]1C(=O)O [lisinopril]
- ACE residues interacting with inhibitor: Glu162, His353, Ala354, Glu384, His387, Glu411, Lys511, His513, Tyr520, and Tyr523
